Measurements: the supplement of paper PMC10849652
Some of the results follow.

By UniProt entry, the sequences of proteins in these tests, tags left out. Where a name states a change or a piece, a line headed by the entry shows the natural chain unless it says otherwise.
UniProt Q96S38: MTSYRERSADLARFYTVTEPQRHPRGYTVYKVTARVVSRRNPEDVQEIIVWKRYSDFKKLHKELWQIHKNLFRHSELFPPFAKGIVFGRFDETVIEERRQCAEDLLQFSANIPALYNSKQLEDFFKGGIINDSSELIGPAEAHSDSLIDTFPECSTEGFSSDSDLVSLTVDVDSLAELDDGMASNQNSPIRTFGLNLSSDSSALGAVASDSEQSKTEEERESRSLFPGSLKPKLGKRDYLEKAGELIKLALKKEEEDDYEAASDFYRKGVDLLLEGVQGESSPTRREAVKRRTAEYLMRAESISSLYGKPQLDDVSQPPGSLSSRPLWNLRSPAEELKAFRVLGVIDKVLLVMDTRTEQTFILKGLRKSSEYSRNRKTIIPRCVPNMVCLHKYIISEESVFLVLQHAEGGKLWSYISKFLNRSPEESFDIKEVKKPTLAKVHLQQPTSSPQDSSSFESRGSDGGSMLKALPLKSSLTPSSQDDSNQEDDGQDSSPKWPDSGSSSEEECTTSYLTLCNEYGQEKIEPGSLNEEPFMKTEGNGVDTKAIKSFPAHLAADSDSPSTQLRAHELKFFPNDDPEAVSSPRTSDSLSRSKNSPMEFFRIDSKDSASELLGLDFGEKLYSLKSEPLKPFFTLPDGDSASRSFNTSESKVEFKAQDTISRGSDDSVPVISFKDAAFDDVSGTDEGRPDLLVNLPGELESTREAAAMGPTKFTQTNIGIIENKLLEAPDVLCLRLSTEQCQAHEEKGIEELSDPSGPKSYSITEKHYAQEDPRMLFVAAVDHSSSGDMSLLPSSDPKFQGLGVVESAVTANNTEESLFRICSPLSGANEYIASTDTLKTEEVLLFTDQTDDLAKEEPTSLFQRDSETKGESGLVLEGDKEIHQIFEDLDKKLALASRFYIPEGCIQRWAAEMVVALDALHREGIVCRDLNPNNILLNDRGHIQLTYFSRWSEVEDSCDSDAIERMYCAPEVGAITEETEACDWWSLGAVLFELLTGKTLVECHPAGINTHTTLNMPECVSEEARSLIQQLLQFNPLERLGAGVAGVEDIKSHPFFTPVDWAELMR
UniProt O60942: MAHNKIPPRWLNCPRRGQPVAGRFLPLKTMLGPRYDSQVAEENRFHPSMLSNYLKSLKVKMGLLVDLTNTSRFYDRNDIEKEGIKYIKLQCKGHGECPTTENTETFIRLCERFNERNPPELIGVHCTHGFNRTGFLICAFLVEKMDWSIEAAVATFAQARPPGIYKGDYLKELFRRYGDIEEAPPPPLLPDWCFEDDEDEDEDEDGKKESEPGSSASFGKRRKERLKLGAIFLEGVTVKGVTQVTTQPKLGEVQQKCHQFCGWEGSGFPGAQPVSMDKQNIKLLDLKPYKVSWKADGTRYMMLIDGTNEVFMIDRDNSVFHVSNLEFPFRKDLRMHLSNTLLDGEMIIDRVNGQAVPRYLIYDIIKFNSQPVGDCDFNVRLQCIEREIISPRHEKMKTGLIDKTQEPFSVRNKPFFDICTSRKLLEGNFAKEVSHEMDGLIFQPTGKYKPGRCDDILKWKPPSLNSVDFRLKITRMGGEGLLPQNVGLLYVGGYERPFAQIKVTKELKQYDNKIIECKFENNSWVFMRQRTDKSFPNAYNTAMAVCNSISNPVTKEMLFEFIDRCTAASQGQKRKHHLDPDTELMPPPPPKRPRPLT
UniProt Q8IZ73: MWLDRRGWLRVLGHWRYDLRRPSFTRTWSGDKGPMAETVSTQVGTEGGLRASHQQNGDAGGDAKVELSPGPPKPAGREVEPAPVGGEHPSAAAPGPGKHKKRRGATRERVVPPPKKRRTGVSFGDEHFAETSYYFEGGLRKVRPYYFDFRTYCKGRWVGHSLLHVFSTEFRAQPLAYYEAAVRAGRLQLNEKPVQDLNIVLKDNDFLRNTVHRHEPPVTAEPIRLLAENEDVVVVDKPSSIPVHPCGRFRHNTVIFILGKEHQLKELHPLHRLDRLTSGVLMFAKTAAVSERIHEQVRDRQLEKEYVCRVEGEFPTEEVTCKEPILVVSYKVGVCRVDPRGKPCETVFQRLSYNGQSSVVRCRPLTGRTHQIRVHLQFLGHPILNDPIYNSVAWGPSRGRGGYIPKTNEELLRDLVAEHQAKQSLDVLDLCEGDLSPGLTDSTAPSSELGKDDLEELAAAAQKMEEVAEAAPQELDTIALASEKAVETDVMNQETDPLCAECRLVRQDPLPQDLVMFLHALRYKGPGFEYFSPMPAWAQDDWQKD
UniProt O75695: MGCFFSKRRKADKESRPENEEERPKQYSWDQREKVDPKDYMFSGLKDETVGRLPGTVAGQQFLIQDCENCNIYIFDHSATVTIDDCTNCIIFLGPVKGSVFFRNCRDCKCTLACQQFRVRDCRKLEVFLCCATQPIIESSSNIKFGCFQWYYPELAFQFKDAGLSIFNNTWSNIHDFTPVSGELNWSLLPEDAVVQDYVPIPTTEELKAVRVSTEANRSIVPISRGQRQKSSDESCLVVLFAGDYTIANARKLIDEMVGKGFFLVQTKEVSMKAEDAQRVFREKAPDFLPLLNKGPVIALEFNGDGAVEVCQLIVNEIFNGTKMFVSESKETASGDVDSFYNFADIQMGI
UniProt Q7L523, whole entry, looked up: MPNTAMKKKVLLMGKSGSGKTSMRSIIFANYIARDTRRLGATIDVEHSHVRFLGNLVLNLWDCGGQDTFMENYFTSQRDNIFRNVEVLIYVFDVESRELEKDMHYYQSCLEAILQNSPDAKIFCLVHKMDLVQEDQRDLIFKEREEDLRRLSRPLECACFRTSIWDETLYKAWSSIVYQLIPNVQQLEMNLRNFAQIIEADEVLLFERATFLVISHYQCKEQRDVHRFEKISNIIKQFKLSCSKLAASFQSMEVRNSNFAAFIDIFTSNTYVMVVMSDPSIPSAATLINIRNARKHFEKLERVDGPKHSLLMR
UniProt Q92901: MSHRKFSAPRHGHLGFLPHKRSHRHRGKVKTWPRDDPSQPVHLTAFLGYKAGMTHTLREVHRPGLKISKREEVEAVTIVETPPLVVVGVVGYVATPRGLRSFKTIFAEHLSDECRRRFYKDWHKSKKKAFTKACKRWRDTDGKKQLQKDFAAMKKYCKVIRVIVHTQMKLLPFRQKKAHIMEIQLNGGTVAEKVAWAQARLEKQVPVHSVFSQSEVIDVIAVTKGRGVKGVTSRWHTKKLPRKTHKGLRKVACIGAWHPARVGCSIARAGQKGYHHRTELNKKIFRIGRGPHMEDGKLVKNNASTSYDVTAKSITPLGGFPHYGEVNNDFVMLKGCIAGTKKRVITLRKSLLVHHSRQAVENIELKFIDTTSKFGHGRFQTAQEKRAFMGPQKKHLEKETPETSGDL
UniProt Q9BUL9: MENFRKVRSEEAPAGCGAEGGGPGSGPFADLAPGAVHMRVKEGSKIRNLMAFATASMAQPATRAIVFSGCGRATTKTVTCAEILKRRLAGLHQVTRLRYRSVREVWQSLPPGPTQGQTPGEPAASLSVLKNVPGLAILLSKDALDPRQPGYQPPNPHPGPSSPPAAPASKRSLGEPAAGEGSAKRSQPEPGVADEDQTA
UniProt P05386, whole entry, looked up: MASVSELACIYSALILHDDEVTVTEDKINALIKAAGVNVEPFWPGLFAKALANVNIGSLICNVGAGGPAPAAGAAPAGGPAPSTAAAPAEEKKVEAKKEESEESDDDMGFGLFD
UniProt P10155: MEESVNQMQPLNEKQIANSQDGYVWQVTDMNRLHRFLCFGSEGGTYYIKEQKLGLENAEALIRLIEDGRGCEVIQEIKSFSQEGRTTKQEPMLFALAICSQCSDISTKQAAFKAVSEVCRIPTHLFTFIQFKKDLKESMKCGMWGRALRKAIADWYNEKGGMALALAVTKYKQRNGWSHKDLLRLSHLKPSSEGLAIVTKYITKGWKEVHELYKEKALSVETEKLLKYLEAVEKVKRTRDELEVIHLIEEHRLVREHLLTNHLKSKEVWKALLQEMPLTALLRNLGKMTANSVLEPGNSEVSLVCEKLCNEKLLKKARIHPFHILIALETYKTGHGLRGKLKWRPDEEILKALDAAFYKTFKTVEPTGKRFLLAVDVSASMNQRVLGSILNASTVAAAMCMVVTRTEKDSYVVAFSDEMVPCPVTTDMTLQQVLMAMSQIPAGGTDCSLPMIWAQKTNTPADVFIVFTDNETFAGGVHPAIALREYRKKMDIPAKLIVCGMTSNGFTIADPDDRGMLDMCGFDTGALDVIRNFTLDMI
UniProt Q9H633: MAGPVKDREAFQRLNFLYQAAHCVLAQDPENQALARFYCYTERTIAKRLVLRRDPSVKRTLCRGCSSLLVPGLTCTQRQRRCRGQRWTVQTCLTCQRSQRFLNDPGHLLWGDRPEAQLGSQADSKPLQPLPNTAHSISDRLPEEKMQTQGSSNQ
UniProt O75818: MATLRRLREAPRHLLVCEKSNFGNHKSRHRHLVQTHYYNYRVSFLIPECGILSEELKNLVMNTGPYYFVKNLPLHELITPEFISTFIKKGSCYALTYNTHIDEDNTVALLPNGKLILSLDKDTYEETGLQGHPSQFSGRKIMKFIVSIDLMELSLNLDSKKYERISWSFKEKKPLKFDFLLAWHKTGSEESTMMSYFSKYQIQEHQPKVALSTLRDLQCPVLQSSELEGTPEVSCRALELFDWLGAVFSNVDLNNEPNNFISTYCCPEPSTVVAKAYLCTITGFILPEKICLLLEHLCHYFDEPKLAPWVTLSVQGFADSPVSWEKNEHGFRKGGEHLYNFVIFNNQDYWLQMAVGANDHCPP
UniProt Q86WX3: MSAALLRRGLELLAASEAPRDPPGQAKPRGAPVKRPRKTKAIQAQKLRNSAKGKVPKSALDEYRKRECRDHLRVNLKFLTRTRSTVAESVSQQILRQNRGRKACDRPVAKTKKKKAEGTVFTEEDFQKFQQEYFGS
UniProt Q7LG56, whole entry, looked up: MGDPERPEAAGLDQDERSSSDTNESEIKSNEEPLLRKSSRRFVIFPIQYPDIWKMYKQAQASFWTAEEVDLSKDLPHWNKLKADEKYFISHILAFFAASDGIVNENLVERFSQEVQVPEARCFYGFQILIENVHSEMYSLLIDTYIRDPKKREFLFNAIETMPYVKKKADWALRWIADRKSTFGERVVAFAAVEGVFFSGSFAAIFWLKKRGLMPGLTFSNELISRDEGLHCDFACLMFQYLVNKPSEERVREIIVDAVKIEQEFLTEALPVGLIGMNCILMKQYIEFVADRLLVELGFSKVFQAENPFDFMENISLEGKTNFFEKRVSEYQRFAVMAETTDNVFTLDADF
UniProt P78345: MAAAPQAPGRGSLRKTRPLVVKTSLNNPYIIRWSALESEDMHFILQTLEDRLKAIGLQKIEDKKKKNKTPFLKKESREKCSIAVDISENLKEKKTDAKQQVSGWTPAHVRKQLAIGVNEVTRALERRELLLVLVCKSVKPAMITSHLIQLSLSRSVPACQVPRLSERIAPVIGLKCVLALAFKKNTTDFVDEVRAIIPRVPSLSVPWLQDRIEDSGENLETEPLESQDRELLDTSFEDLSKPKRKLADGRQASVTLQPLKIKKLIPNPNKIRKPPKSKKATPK

How the values were obtained:
Assay in all cases: log2 fold change, soluble protein after heating vs DMSO (PISA); higher = thermal stabilisation; K562 cells, 10 uM, 30 min; active = over 0.2 and 3.5 SD of the protein, either way, in both replicates (recomputed)
[1] = compound: CS(=O)(=O)c1ccc(-c2cnc(N)c(C(=O)Nc3ccccc3)n2)cc1
How it was run: (§1)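 Soluble protein was defined as the supernatant after 21,000xg for 90 min. It came from K562 cells at 2×10^6 cells/mL given 10 μM compound for 30 min, heated in aliquots for 3 min across 48°C-58°C, pooled, and extracted in PBS with 0.5% NP-40 at 4°C, and was quantified by TMTpro 16plex LC-MS/MS with equalised channel sums. Thermal stability against control samples, from duplicates, is reported as log2 fold change.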

crizotinib = compound: C[C@@H](Oc1cc(-c2cnn(C3CCNCC3)c2)cnc1N)c1c(Cl)ccc(F)c1Cl [crizotinib]
How it was run: as §1

[2] = compound: C[C@@H]1COCCN1C2=NC(=NC(=C2)C3(CC3)S(=O)(=O)C)C4=C5C=CNC5=CC=C4
How it was run: as §1

[3] = compound: C[C@H](C1=CC=C(C=C1)C(=O)NC2=C3C=CNC3=NC=C2)N
How it was run: as §1

duvelisib = compound: C[C@H](Nc1ncnc2nc[nH]c12)c1cc2cccc(Cl)c2c(=O)n1-c1ccccc1 [duvelisib]
How it was run: as §1

gandotinib = compound: Cc1cc(Nc2cc(CN3CCOCC3)c3nc(C)c(Cc4ccc(Cl)cc4F)n3n2)n[nH]1 [gandotinib]
How it was run: as §1

tozasertib = compound: Cc1cc(Nc2cc(N3CCN(C)CC3)nc(Sc3ccc(NC(=O)C4CC4)cc3)n2)n[nH]1 [tozasertib]
How it was run: as §1

[4] = compound: Cc1cc(SCc2sc(-c3ccc(C(F)(F)F)cc3)nc2C)ccc1OCC(=O)O
How it was run: as §1

doramapimod = compound: Cc1ccc(-n2nc(C(C)(C)C)cc2NC(=O)Nc2ccc(OCCN3CCOCC3)c3ccccc23)cc1 [doramapimod]
How it was run: as §1

ispinesib = compound: Cc1ccc(C(=O)N(CCCN)[C@@H](c2nc3cc(Cl)ccc3c(=O)n2Cc2ccccc2)C(C)C)cc1 [ispinesib]
How it was run: as §1

Measured: log2 fold change

RPS6KC1 (UniProt Q96S38)
inactive: [1] 0.052 | crizotinib 0.028 | [2] 0.04 | [3] -0.121 | duvelisib 0.206 | gandotinib 0.163 | tozasertib 0.01 | [4] 0.137 | doramapimod -0.014 | ispinesib -0.057

RNGTT (UniProt O60942)
inactive: [1] 0.026 | crizotinib -0.092 | [2] 0.337 | [3] -0.049 | duvelisib 0.091 | gandotinib -0.134 | tozasertib 0.065 | [4] 0.033 | doramapimod 0.052 | ispinesib 0.073

RPS17 (UniProt P08708)
inactive: [1] -0.063 | crizotinib 0.01 | [2] -0.358 | [3] 0.209 | duvelisib -0.092 | gandotinib 0.133 | tozasertib -0.005 | [4] 0.024 | doramapimod 0.032 | ispinesib -0.083

RPUSD2 (UniProt Q8IZ73)
inactive: [1] 0.014 | crizotinib 0.009 | [2] 0.024 | [3] -0.034 | duvelisib 0.045 | gandotinib 0.026 | tozasertib -0.019 | [4] 0.03 | doramapimod 0.022 | ispinesib 0.021

RPL35A (UniProt P18077)
inactive: [1] -0.045 | crizotinib 0.155 | [2] -1.21 | [3] 0.689 | duvelisib -0.358 | gandotinib 0.571 | tozasertib 0.073 | [4] 0.035 | doramapimod 0.422 | ispinesib -0.296

RP2 (UniProt O75695)
inactive: [1] 0.024 | crizotinib -0.048 | [2] 0.074 | [3] 0.017 | duvelisib 0.132 | gandotinib -0.119 | tozasertib -0.045 | [4] -0.086 | doramapimod -0.054 | ispinesib -0.057

RRAGA (UniProt Q7L523)
inactive: [1] 0.058 | crizotinib -0.177 | [2] -0.033 | [3] -0.141 | duvelisib 0.672 | gandotinib 0.365 | tozasertib 0.051 | [4] 0.238 | doramapimod 0.01 | ispinesib 0.118

RPL3L (UniProt Q92901)
inactive: [1] -0.083 | crizotinib 0.205 | [2] -1.41 | [3] 0.667 | duvelisib -0.335 | gandotinib 0.383 | tozasertib 0.116 | [4] 0.116 | doramapimod 0.393 | ispinesib -0.327

RPP25 (UniProt Q9BUL9)
inactive: [1] -0.035 | crizotinib -0.034 | [2] -0.116 | [3] -0.02 | duvelisib 0 | gandotinib 0.158 | tozasertib 0.007 | [4] -0.005 | doramapimod -0.071 | ispinesib -0.071

RPL37A (UniProt P61513)
inactive: [1] -0.126 | crizotinib 0.052 | [2] -1.18 | [3] 0.701 | duvelisib -0.332 | gandotinib 0.413 | tozasertib 0.051 | [4] 0.066 | doramapimod 0.227 | ispinesib -0.229

RPS10 (UniProt P46783)
inactive: [1] -0.057 | crizotinib 0.007 | [2] -0.308 | [3] 0.139 | duvelisib -0.1 | gandotinib 0.173 | tozasertib -0.011 | [4] -0.006 | doramapimod 0.042 | ispinesib -0.072

RPLP1 (UniProt P05386)
inactive: [1] -0.187 | crizotinib 0.082 | [2] -0.6 | [3] 0.504 | duvelisib -0.114 | gandotinib 0.351 | tozasertib 0.149 | [4] -0.057 | doramapimod 0.226 | ispinesib -0.106

RO60 (UniProt P10155)
inactive: [1] 0.042 | crizotinib 0.034 | [2] 0.034 | [3] -0.048 | duvelisib 0.011 | gandotinib 0.029 | tozasertib -0.003 | [4] -0.052 | doramapimod -0.003 | ispinesib 0.028

RPP21 isoform 4 (UniProt Q9H633)
inactive: [1] 0.049 | crizotinib -0.018 | [2] -0.018 | [3] -0.095 | duvelisib -0.057 | gandotinib 0.112 | tozasertib 0.066 | [4] 0.006 | doramapimod 0.032 | ispinesib 0.081

RPS15A (UniProt P62244)
inactive: [1] -0.093 | crizotinib 0.046 | [2] -0.584 | [3] 0.359 | duvelisib -0.225 | gandotinib 0.356 | tozasertib 0.036 | [4] 0.037 | doramapimod 0.237 | ispinesib -0.192

RPS27L (UniProt Q71UM5)
inactive: [1] -0.025 | crizotinib -0.008 | [2] -0.17 | [3] 0.117 | duvelisib -0.025 | gandotinib 0.147 | tozasertib 0.037 | [4] 0.063 | doramapimod 0.016 | ispinesib -0.05

RPS27 (UniProt P42677)
inactive: [1] -0.009 | crizotinib -0.015 | [2] -0.002 | [3] 0.248 | duvelisib 0.057 | gandotinib 0.067 | tozasertib 0 | [4] 0.071 | doramapimod 0.074 | ispinesib -0.111

RPP40 (UniProt O75818)
inactive: [1] -0.006 | crizotinib 0.069 | [2] -0.043 | [3] 0.006 | duvelisib 0.004 | gandotinib -0.044 | tozasertib 0.025 | [4] -0.028 | doramapimod -0.006 | ispinesib 0.057

RPS19BP1 (UniProt Q86WX3)
inactive: [1] -0.018 | crizotinib -0.04 | [2] -0.407 | [3] 0.36 | duvelisib -0.058 | gandotinib 0.232 | tozasertib -0.029 | [4] 0 | doramapimod 0.066 | ispinesib -0.047

RPL6 (UniProt Q02878)
inactive: [1] -0.053 | crizotinib 0.077 | [2] -0.823 | [3] 0.698 | duvelisib -0.358 | gandotinib 0.45 | tozasertib 0.06 | [4] 0.066 | doramapimod 0.411 | ispinesib -0.328

RPL34 (UniProt P49207)
inactive: [1] -0.281 | crizotinib 0.098 | [2] -1.24 | [3] 0.647 | duvelisib -0.322 | gandotinib 0.503 | tozasertib 0.054 | [4] 0.107 | doramapimod 0.318 | ispinesib -0.276

RPL18 (UniProt Q07020)
inactive: [1] -0.043 | crizotinib 0.071 | [2] -1.02 | [3] 0.658 | duvelisib -0.435 | gandotinib 0.496 | tozasertib 0.061 | [4] -0.01 | doramapimod 0.387 | ispinesib -0.352

RRM2B isoform 6 (UniProt Q7LG56)
inactive: [1] 0.017 | crizotinib -0.003 | [2] 0.055 | [3] -0.032 | duvelisib 0.015 | gandotinib -0.124 | tozasertib -0.031 | [4] 0.009 | doramapimod 0.109 | ispinesib 0.011

RPL5 (UniProt P46777)
inactive: [1] -0.016 | crizotinib 0.016 | [2] -0.52 | [3] 0.315 | duvelisib -0.172 | gandotinib 0.249 | tozasertib -0.001 | [4] 0.012 | doramapimod 0.097 | ispinesib -0.092

RPL14 (UniProt P50914)
inactive: [1] -0.063 | crizotinib 0.05 | [2] -1.18 | [3] 0.699 | duvelisib -0.287 | gandotinib 0.598 | tozasertib 0.038 | [4] 0.117 | doramapimod 0.33 | ispinesib -0.203

RPL8 (UniProt P62917)
inactive: [1] -0.201 | crizotinib 0.107 | [2] -1.13 | [3] 0.74 | duvelisib -0.331 | gandotinib 0.489 | tozasertib 0.059 | [4] 0.052 | doramapimod 0.404 | ispinesib -0.336

2 consecutive entries out of the list so far:
RPL18 (UniProt Q07020)
inactive: [1] -0.043 | crizotinib 0.071 | [2] -1.02 | [3] 0.658 | duvelisib -0.435 | gandotinib 0.496 | tozasertib 0.061 | [4] -0.01 | doramapimod 0.387 | ispinesib -0.352

RRM2B isoform 6 (UniProt Q7LG56)
inactive: [1] 0.017 | crizotinib -0.003 | [2] 0.055 | [3] -0.032 | duvelisib 0.015 | gandotinib -0.124 | tozasertib -0.031 | [4] 0.009 | doramapimod 0.109 | ispinesib 0.011

Further records follow:

RPL12 (UniProt P30050)
inactive: [1] -0.158 | crizotinib 0.156 | [2] -1.01 | [3] 0.537 | duvelisib -0.312 | gandotinib 0.408 | tozasertib 0.022 | [4] 0.053 | doramapimod 0.427 | ispinesib -0.279

RPP38 (UniProt P78345)
inactive: [1] -0.02 | crizotinib 0.055 | [2] 0.073 | [3] 0.075 | duvelisib -0.008 | gandotinib 0.1 | tozasertib 0 | [4] -0.051 | doramapimod 0.057 | ispinesib 0.017

RPL4 (UniProt P36578)
inactive: [1] -0.1 | crizotinib 0.037 | [2] -1.24 | [3] 0.607 | duvelisib -0.303 | gandotinib 0.437 | tozasertib 0.035 | [4] 0.048 | doramapimod 0.372 | ispinesib -0.224

RPL21 (UniProt P46778)
inactive: [1] -0.036 | crizotinib 0.055 | [2] -1.06 | [3] 0.717 | duvelisib -0.267 | gandotinib 0.448 | tozasertib 0.046 | [4] 0 | doramapimod 0.427 | ispinesib -0.257
